Experimental data reported in PubChem BioAssay AID540256 (National Center for Advancing Translational Sciences (NCATS), 2011).
About 3,700 (1.2%) of roughly 300,000 compounds were called active. The shares of active, inactive and inconclusive entries below differ from those in the screen. Calls follow the shape of the full dose curve; tested in HEK293 cells. Potencies beside an inconclusive call are fits to weak or partial responses and may not hold up.
Potency is read from the fitted curve at half-maximal effect.

Experiment: qHTS for Inhibitors of binding or entry into cells for Lassa Virus; also: nearly all actives have a fitted effect of over 50% in size
Conditions: Lassa virus pseudotype entry inhibition, cell reporter; series mostly up to 37.9 µM
In the case of `COc1ccc(CCN(Cc2ccccn2)C(=S)Nc2ccccc2Cl)cc1OC`, the Potency is reported as inconclusive: 14.1 µM [inhibitor, single point].
With `Cc1ccc(NC(=O)c2cc3nc(C)cc(C)n3n2)cc1` the Potency was inconclusive: 25.9 µM [inhibitor, single point].
For `CC(C)c1nnc(NC(=O)CSc2ccccc2)s1`, the Potency was “inactive”.
In the case of `O=C(Cc1ccc(S(=O)(=O)N2CCOCC2)s1)N1CCN(S(=O)(=O)c2cccc(Cl)c2)CC1`, the Potency is reported as inconclusive: 5.62 µM [inhibitor, single point].
For `O=S(=O)(c1cc(Br)c(Br)s1)N1CCN(c2ccccc2)CC1`, the Potency was “inactive”.
For `COc1ccccc1C(=O)Nc1cccc(OCc2cc(=O)n3c(C)csc3n2)c1`, the Potency was inconclusive: 12.6 µM [inhibitor, single point].
In the case of `COc1cc(/C=C(/NC(=O)c2ccccc2)C(=O)Nc2ccccc2)c([N+](=O)[O-])cc1OC`, the Potency is reported as “inactive”.
In the case of `Clc1ccc(Nc2nc(-c3ccccc3)c3ccccc3n2)c(Cl)c1`, the Potency is reported as “inactive”.
For `Cc1nc(NC(=O)C2CC2)sc1C`, the Potency was inconclusive: 31.6 µM [activator, partial curve, poor fit].
For `COc1ccc(NC(=S)N2CCC(NC(=O)c3cccc(C)c3)CC2)cc1`, the Potency was inconclusive: 1.26 µM [inhibitor, single point].
With `S=c1nc(-c2ccccc2)oc2c1CCCC2` the Potency was inconclusive: 6.31 µM [activator, single point].
With `Nc1nnc(SCC(=O)Nc2cccc(F)c2)s1` the Potency was “inactive”.
For `CCOc1ccc(-n2cnc3sc(C)c(C)c3c2=O)cc1`, the Potency was “inactive”.
With `Cc1ccc(CS(=O)Cc2ccc(C(=O)NCc3ccccc3Cl)o2)cc1` (stereo not given) the Potency was inconclusive: 35.5 µM [inhibitor, single point].
For `Nc1c(C(=O)Nc2ccccc2Cl)nnn1-c1ccc2c(c1)OCCO2`, the Potency was “inactive”.
For `O=C(NCC(c1ccco1)N1CCc2ccccc2C1)C(=O)Nc1ccccc1` (stereo not given), the Potency was inconclusive: 10 µM [inhibitor, partial curve, poor fit].
For `CCOc1ccc(NC(=O)CCc2nc3cccnc3n2Cc2ccc(OC)cc2)cc1`, the Potency was “inactive”.
With `Cc1nn(S(=O)(=O)c2ccc(C(C)(C)C)cc2)c(C)c1S(=O)(=O)N1CCOCC1` the Potency was inconclusive: 39.8 µM [activator, partial curve, poor fit].
In the case of `Cc1ccc(NC(=S)NC2CC3CCC(C2)N3Cc2ccco2)c(C)c1` (stereo not given), the Potency is reported as “inactive”.
For `O=C(C1=C(O)C(=O)N(CCN2CCOCC2)C1c1cccc(Br)c1)c1cccs1` (stereo not given), the Potency was inconclusive: 3.55 µM [activator, partial curve, poor fit].
With `COc1ccc(CNC(=O)C2CCN(S(=O)(=O)c3ccc4nc5c(c(C(=O)O)c4c3)CCCC5)CC2)cc1` the Potency was inconclusive: 25.1 µM [activator, single point].
With `NS(=O)(=O)c1ccc(N=Nc2c(O)[nH]c3ccc(C(=O)NCCCn4ccnc4)cc23)cc1` the Potency was active: 3.15 µM.
With `Cc1ccc(C(=O)OC2OC(=O)C(Cl)=C2N2CCOCC2)cc1` (stereo not given) the Potency was inconclusive: 6.31 µM [activator, full curve, poor fit].
In the case of `Cc1ccc(-c2nnc(N3CCN(C(=O)COc4cccc(C)c4)CC3)c3ccccc23)cc1`, the Potency is reported as inconclusive: 10 µM [inhibitor, partial curve].
In the case of `Cc1cc(C)cc(NC(=O)Cn2cc(C(=O)c3ccncc3)c(=O)c3cc(C)c(C)cc32)c1`, the Potency is reported as inconclusive: 35.5 µM [inhibitor, single point].
For `CC1(C)CC(O)CC(C)(C)N1CC(O)COCc1ccccc1` (stereo not given), the Potency was inconclusive: 31.6 µM [activator, single point].
In the case of `COC(=O)C1CC23C=CCN4CCC5(c6ccccc6NC15C2C)C43` (stereo not given), the Potency is reported as inconclusive: 2.24 µM [inhibitor, full curve, poor fit].
With `O=C(O)CCCn1cc(NC(=O)COc2ccc(F)cc2F)cn1` the Potency was “inactive”.
In the case of `Cc1cccc(NC(=O)C2CCN(S(=O)(=O)c3ccc4[nH]c5c(c4c3)CCCCC5)CC2)c1`, the Potency is reported as “inactive”.
For `COc1ccc(C2=NOC(C(=O)N3CCOCC3)C2)cc1OC` (stereo not given), the Potency was “inactive”.
For `Cc1ccc(S(=O)(=O)Cn2nnnc2C(C(C)C)N2CCC(C(N)=O)CC2)cc1` (stereo not given), the Potency was inconclusive: 6.31 µM [inhibitor, single point].
For `CCc1ccc(NC(=O)c2cnc(N3CCN(c4ccccn4)CC3)c3ccccc23)cc1`, the Potency was inconclusive: 10 µM [inhibitor, partial curve, poor fit].
With `CCOc1ccc(CCNC(=O)c2cc3cc4cc(OC)ccc4nc3s2)cc1OCC` the Potency was “inactive”.
In the case of `CCc1nn2c(=O)cc(COC(=O)c3cccc(NC(=O)COc4ccccc4)c3)nc2s1`, the Potency is reported as inconclusive: 5.62 µM [activator, single point].
For `COC(=O)c1ccc(OC(=O)CCN2c3ccccc3Sc3ccccc32)cc1`, the Potency was “inactive”.
For `CC(=O)c1ccc(Nc2nc(C)cc(C)n2)cc1`, the Potency was “inactive”.
For `CN1C[C@H](C(=O)N[C@]2(C)O[C@@]3(O)[C@@H]4CCCN4C(=O)[C@H](Cc4ccccc4)N3C2=O)C[C@@H]2c3cccc4[nH]cc(c34)C[C@H]21`, the Potency was inconclusive: 16.4 µM [inhibitor, single point].
In the case of `O=C(NC1CCN(Cc2ccccc2)CC1)c1cccc(Br)c1`, the Potency is reported as “inactive”.
With `Oc1ccccc1/C=N/NC(=S)NC1CC2C=CC1C2` (stereo not given) the Potency was inconclusive: 35.5 µM [inhibitor, single point].
For `O=C(Cc1ccc(S(=O)(=O)N2CCOCC2)s1)NCCC(c1ccccc1)c1ccccc1`, the Potency was inconclusive: 20.6 µM [inhibitor, partial curve, poor fit].
With `CC(C)(C)C(=O)NNC(=O)c1cc2sccc2s1` the Potency was “inactive”.
In the case of `Cc1ccc(OCC(=O)Nc2cccc(O)c2)cc1C`, the Potency is reported as inconclusive: 23.1 µM [inhibitor, partial curve].
With `COc1ccc(-c2cn(-c3ccc(Br)cc3)c3[n+]2CCS3)cc1` the Potency was “inactive”.
With `Cc1sc2c(c1C)C(c1cccs1)=NCC(=O)N2CC(=O)NCc1cccs1` the Potency was inconclusive: 9.2 µM [inhibitor, partial curve, poor fit].
With `CCOC(=O)C1=C(C)NC(C)=C(C(=O)OCC)C1c1cccs1` the Potency was “inactive”.
